For at least one entry, the source does not settle the construct or the ends of the probe. Where cells or extracts were used, other partners may take part. For some assays here: No signal at the amounts used counts as a negative. For some assays here: Where a protein sequence is shown, tags need not be part of it. For some assays here: Weaker means in comparison with the reference protein, sequence or condition of that experiment. For some assays here: At least one verdict was read from the data and is not stated in words by the source.
Legend:
Experiment in all cases: EMSA
[1] = target: T1, COUP-TFII (UniProt P24468); conditions: 20 mM HEPES-KOH pH 7.9, 12% glycerol, 50 mM KCl, 1 mM DTT, 1 ug poly(dI:dC), 3 ug BSA, 10 ul, room temperature 20 min, 5% PAGE, 0.5x TBE, protein in an extract, protein details: untagged (pTL1-COUP-TFII), label: 5'-32P
T1 sequence (looked up, limits assumed): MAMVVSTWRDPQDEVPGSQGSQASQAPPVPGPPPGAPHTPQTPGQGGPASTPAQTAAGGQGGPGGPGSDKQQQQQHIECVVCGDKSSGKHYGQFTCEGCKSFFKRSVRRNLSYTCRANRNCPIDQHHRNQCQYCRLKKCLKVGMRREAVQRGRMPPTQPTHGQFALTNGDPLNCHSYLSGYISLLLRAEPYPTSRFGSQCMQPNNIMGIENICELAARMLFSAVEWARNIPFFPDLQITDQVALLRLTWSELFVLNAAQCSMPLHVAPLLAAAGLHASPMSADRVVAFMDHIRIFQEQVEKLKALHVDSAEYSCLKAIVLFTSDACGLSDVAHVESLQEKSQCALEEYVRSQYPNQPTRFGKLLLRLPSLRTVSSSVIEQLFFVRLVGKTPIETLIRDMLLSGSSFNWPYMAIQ

By UniProt entry, the sequences of proteins in these tests, tags left out. Where a name states a change or a piece, a line headed by the entry shows the natural chain unless it says otherwise. Residues count along the entry.
UniProt Q9H165: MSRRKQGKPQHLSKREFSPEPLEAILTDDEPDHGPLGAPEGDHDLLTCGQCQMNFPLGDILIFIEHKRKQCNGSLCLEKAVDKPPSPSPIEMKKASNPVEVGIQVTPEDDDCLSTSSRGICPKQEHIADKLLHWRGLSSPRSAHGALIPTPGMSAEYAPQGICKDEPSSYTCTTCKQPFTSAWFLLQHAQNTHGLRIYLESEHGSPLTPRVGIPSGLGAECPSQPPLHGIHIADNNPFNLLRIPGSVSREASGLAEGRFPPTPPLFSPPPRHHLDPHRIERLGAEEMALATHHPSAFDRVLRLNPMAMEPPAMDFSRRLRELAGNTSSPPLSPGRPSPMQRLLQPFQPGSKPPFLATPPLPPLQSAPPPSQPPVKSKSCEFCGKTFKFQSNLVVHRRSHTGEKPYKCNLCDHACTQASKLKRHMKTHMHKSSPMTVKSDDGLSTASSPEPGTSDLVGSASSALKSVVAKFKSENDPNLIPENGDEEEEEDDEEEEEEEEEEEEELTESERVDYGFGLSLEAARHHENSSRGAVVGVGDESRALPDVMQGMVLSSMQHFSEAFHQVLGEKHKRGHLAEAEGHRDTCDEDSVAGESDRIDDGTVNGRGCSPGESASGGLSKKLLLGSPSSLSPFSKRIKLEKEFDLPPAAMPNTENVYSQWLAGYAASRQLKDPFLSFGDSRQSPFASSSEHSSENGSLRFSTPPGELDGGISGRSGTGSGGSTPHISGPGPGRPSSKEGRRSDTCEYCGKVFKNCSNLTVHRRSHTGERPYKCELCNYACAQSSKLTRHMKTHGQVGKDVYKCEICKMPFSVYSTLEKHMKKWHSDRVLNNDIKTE
UniProt Q9Y5X4, 89-410: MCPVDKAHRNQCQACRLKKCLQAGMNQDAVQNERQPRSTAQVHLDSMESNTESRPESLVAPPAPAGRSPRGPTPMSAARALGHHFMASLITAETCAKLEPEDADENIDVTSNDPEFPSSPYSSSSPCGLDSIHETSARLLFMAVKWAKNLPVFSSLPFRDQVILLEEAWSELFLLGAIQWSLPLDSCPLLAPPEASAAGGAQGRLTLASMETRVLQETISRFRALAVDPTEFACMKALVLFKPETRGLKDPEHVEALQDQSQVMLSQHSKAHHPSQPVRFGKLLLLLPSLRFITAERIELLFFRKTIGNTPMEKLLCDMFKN
UniProt Q9Y466: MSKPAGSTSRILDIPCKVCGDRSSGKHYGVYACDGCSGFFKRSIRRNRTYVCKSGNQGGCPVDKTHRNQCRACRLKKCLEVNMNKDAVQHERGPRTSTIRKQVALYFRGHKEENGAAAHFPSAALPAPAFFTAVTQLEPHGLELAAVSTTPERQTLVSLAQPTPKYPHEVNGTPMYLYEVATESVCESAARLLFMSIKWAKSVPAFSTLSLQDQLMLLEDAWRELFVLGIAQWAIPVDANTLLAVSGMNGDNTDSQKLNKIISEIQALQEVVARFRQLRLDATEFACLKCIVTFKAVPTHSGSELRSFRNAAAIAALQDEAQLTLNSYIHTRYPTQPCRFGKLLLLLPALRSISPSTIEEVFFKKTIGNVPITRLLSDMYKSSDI

[2] = target: BCL11A-XL (UniProt Q9H165); conditions: diffuse shifts at high concentration; 20 mM HEPES-KOH pH 7.9, 12% glycerol, 50 mM KCl, 1 mM DTT, 1 ug poly(dI:dC), 3 ug BSA, 10 ul, room temperature 20 min; 5% PAGE, 0.5x TBE; protein in an extract; protein details: FLAG; label: 5'-32P
[3] = target: PNR (UniProt Q9Y5X4); conditions: no strong binding; 20 mM HEPES-KOH pH 7.9, 12% glycerol, 50 mM KCl, 1 mM DTT, 1 ug poly(dI:dC), 3 ug BSA, 10 ul, room temperature 20 min; 5% PAGE, 0.5x TBE; protein in an extract; residues 89-410; protein details: HA; label: 5'-32P
[4] = target: TLX (UniProt Q9Y466); conditions: no strong binding; 20 mM HEPES-KOH pH 7.9, 12% glycerol, 50 mM KCl, 1 mM DTT, 1 ug poly(dI:dC), 3 ug BSA, 10 ul, room temperature 20 min; 5% PAGE, 0.5x TBE; protein in an extract; protein details: HA; label: 5'-32P
[5] = half-site mutations disrupt complex

Row | Sequence | binding result [1, 5] | binding result [2] | binding result [1] | binding result [3] | binding result [4]
1 | GACTGGCCAAAGAGGAAACTTCAGGAAATGTCCTTTAATGGCCCTAAAACTCATTC (double strand) [Bgl3 128-182mut (+812/+867 mutant)] | no binding | – | – | – | –
2 | GACTGGCCTCAGAGGAAACTTCAGGTCATGTC (double strand) [Bgl3 128-151 (+812/+843)] | – | binds more weakly | binds | binds more weakly | binds more weakly
3 | GGTGATGTCAGACTAGTTGGGTCATTTG (double strand) [RARbeta2 COUP-TFII RE (DR8)] | – | – | binds | – | –
4 | TTCCGTGGCCCGAACTGGAAATTAGGAAATTTGTGTCTGAAACAGGCTTGATCTATA (double strand) [Bgl3 739-795mut (+198/+255 mutant)] | no binding | – | – | – | –
5 | TTCCGTGGCCCGTGCTGGGCATTAGGTCATTT (double strand) [Bgl3 739-763 (+198/+231)] | – | binds more weakly | binds | binds more weakly | binds more weakly

Source: paper PMC3834829
